Taken from: PubChem BioAssay AID1159584 (Peter MacCallum Cancer Centre, 2016)
Test: 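Knock-downs that harm CDH1-null cells more than parental MCF10A cells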 (primary screen). Cell system: human MCF10A breast epithelial cells, parental and CDH1-null. Knock-down reagent: siRNA against human genes. Detection: 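Cell viability by CellTiter-Glo ATP luminescence, each line scaled to the mean of mock wells across plates, then CDH1-null over parental ratio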. Scale: CDH1-null / parental viability ratio: higher = CDH1-null cells survive relatively better than parental.
Here is an unselected part of about 18,000 deposited reagents. Not all columns of the deposit are shown. The record does not give: the amount of reagent, the time to read-out.

MINDY3 (GeneID 80013)
- CDH1-null / parental viability ratio: 1.13

RASGRP2 (GeneID 10235)
- CDH1-null / parental viability ratio: 0.72

MIR99AHG (GeneID 388815)
- CDH1-null / parental viability ratio: 0.98

XPO6 (GeneID 23214)
- CDH1-null / parental viability ratio: 0.92

NPB (GeneID 256933)
- CDH1-null / parental viability ratio: 0.92

ABHD13 (GeneID 84945)
- CDH1-null / parental viability ratio: 0.79

OR4K1 (GeneID 79544)
- CDH1-null / parental viability ratio: 1.09

KLC3 (GeneID 147700)
- CDH1-null / parental viability ratio: 1.17

FAM53C (GeneID 51307)
- CDH1-null / parental viability ratio: 0.76

SRGN (GeneID 5552)
- CDH1-null / parental viability ratio: 0.6

TRIP13 (GeneID 9319)
- CDH1-null / parental viability ratio: 0.88

SCGB1C1 (GeneID 147199)
- CDH1-null / parental viability ratio: 1

CCDC88C (GeneID 440193)
- CDH1-null / parental viability ratio: 1.22

SLC6A12 (GeneID 6539)
- CDH1-null / parental viability ratio: 0.88

UCMA (GeneID 221044)
- CDH1-null / parental viability ratio: 0.92

COL4A3 (GeneID 1285)
- CDH1-null / parental viability ratio: 0.94

NCF4 (GeneID 4689)
- CDH1-null / parental viability ratio: 0.88

PARP9 (GeneID 83666)
- CDH1-null / parental viability ratio: 1.41

TDRD9 (GeneID 122402)
- CDH1-null / parental viability ratio: 1.14

ORAI3 (GeneID 93129)
- CDH1-null / parental viability ratio: 1.32

MAB21L1 (GeneID 4081)
- CDH1-null / parental viability ratio: 1.17

PDE8B (GeneID 8622)
- CDH1-null / parental viability ratio: 1.65

Copied from the list.
TRIP13 (GeneID 9319), CDH1-null / parental viability ratio = 0.88
Entry for SCGB1C1 (GeneID 147199) in “CDH1-null / parental viability ratio”: 1

The list goes on.
EMC2 (GeneID 9694)
- CDH1-null / parental viability ratio: 1.06

CDAN1 (GeneID 146059)
- CDH1-null / parental viability ratio: 1

FA2H (GeneID 79152)
- CDH1-null / parental viability ratio: 0.92

COX7A2 (GeneID 1347)
- CDH1-null / parental viability ratio: 0.83

TRAK2 (GeneID 66008)
- CDH1-null / parental viability ratio: 0.68

UQCRH (GeneID 7388)
- CDH1-null / parental viability ratio: 0.98

GFM1 (GeneID 85476)
- CDH1-null / parental viability ratio: 1.02

ACTR3B (GeneID 57180)
- CDH1-null / parental viability ratio: 0.96

INPP5E (GeneID 56623)
- CDH1-null / parental viability ratio: 1.22

CELA1 (GeneID 1990)
- CDH1-null / parental viability ratio: 1.24

AGO3 (GeneID 192669)
- CDH1-null / parental viability ratio: 0.98

PNO1 (GeneID 56902)
- CDH1-null / parental viability ratio: 0.95

DCANP1 (GeneID 140947)
- CDH1-null / parental viability ratio: 0.95
